The target in the assay is T1, GST-fused BRI1 kinase domain (Arabidopsis, UniProt O22476 814-1196).
T1 construct: BRASSINOSTEROID … 1 (BRI1), Arabidopsis, kinase domain, residues 814-1196; also called GST-BRI1-KD; BRI1-KD; source: E. coli (pGEX-4T-1); not shown: GST, N-terminal, kept
T1 sequence (looked up): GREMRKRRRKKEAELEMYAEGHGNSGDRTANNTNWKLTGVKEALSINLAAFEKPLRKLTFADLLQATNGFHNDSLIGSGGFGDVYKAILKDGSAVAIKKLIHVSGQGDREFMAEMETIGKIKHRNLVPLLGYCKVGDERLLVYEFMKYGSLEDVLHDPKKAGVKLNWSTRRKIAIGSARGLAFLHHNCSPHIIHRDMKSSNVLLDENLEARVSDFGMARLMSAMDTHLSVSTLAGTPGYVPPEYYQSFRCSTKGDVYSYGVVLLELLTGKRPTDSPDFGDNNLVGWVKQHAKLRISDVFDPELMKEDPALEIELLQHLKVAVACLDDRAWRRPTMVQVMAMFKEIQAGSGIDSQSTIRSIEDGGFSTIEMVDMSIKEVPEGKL
The experiment in a line: condition: about 30 μg MBP fusion with about 15 μg GST fusion in 900 μL; pull-down; about 15 μg GST fusion with about 30 μg MBP fusion in 900 μL TGH buffer (10% glycerol, 1% Triton X-100, 1.5 mM MgCl2, 150 mM NaCl, 1 mM EGTA, 50 mM HEPES, pH 7.5); 30 μL GST beads, about 1 h; immunoblot with anti-MBP and anti-GST; both purified.

In article PMC5906681, “BRI1 and BAK1 interact with G proteins and regulate sugar-responsive growth and development in Arabidopsis” (Nature Communications, 2018) one finds binding data, which are given here for one molecule.

Results are given in words; binding and its absence hold for the method and conditions named. Where a sequence is shown, tags or fusion partners need not be part of it.

B1: MBP-GPA1 (protein, UniProt P18064 1-383)
chain: MGLLCSRSRHHTEDTDENTQAAEIERRIEQEAKAEKHIRKLLLLGAGESGKSTIFKQIKLLFQTGFDEGELKSYVPVIHANVYQTIKLLHDGTKEFAQNETDSAKYMLSSESIAIGEKLSEIGGRLDYPRLTKDIAEGIETLWKDPAIQETCARGNELQVPDCTKYLMENLKRLSDINYIPTKEDVLYARVRTTGVVEIQFSPVGENKKSGEVYRLFDVGGQRNERRKWIHLFEGVTAVIFCAAISEYDQTLFEDEQKNRMMETKELFDWVLKQPCFEKTSFMLFLNKFDIFEKKVLDVPLNVCEWFRDYQPVSSGKQEIEHAYEFVKKKFEELYYQNTAPDRVDRVFKIYRTTALDQKLVKKTFKLVDETLRRRNLLEAGLL
As to B1, the binding entry is “no binding”.
